Measurements as given in patent publication US20260035475A1.
These are yes or no findings as the source states them, for the method shown. Some entries that bind do so weakly or less than the wild type.

How the values were obtained:
[1] = target: human transferrin receptor 1 (hTfR1), recombinant, construct not stated (human) (UniProt P02786); assay: BLI epitope binning on biotinylated hTfR1, competitor 15G11-1
[2] = target: chimeric TfR1 consisting of human apical domain grafted on mouse TfR1 ectodomain (SEQ ID NO:76) (human/mouse chimera); assay: ELISA, coated His-tagged antigen, mouse IgG dilution series
[3] = target: chimeric TfR1 consisting of human helical domain grafted on mouse TfR1 ectodomain (SEQ ID NO:77) (human/mouse chimera); assay: as above
[4] = target: cynomolgus TfR1 (cTfR1), recombinant, construct not stated (cynomolgus); assay: BLI (Octet): IgG captured from crude hybridoma supernatant on anti-mouse capture sensors, 250 nM cTfR1 in solution
[5] = target: chimeric TfR1 consisting of human helical domain grafted on mouse TfR1 ectodomain (SEQ ID NO:77) (human/mouse chimera); assay: condition: about 650 ng/ml (last point, between 100 and 1000 on the log axis); indirect ELISA on coated h/m helical domain chimera; x axis printed 'TfR (ng/ml)' [E]
[6] = target: chimeric TfR1 consisting of human apical domain grafted on mouse TfR1 ectodomain (SEQ ID NO:76) (human/mouse chimera); assay: condition: about 650 ng/ml (last point, between 100 and 1000 on the log axis); indirect ELISA on coated h/m apical domain chimera; x axis printed 'TfR (ng/ml)' [C]
[7] = target: cynomolgus TfR1 (cTfR1), recombinant, construct not stated (cynomolgus); assay: ELISA, hybridoma supernatant
[8] = target: cynomolgus TfR1 (cTfR1), recombinant, construct not stated (cynomolgus); assay: BLI, IgG captured from hybridoma supernatant, 250 nM cTfR1 in solution
[9] = target: human transferrin receptor 1 (hTfR1), recombinant, construct not stated (human) (UniProt P02786); assay: BLI, IgG captured from hybridoma supernatant, TfR1 in solution
[10] = target: cynomolgus TfR1 (cTfR1), recombinant, construct not stated (cynomolgus); assay: as above
[11] = target: human transferrin receptor 1 (hTfR1), recombinant, construct not stated (human) (UniProt P02786); assay: BLI (Octet): IgG captured from crude hybridoma supernatant on anti-mouse capture sensors, 250 nM hTfR1 in solution
[12] = target: human transferrin receptor 1 (hTfR1), recombinant, construct not stated (human) (UniProt P02786); assay: BLI, IgG captured from hybridoma supernatant, 250 nM hTfR1 in solution

- binding [1]: binds
- binding [2]: no binding
- binding [3]: no binding
- binding [4]: binds
- binding [5]: no binding
- binding [6]: no binding
- binding [7]: binds
- binding [8]: binds
- binding [9]: binds
- binding [10]: binds
- binding [11]: binds
- binding [12]: binds
B1: 24B4 (mouse monoclonal antibody) (antibody, V domains shown)
VH: EVQLQQFGAELVKPGTSVKISCKASGYTFTDYNMDWVKQGHGKGLEWIGDINPNYDTTSYSQKFKGKATLTVDKSSSTAYMELRSLTSEDTAVYYCARSEAGNYYWYFDVWGAGTTVTVSS
VL: DIVMSQSPSSLAVSVGEKVTMSCKSSQSLLYSSNRKNYLAWYRQKPGQSPKLLIYWASTRESGVPDRFTGSGSGTDFTLTISSVKAEDLAVYSCQQYYNYPYTFGGGTKLEIK
